In patent US20110097341A1 (Pfizer, published 2011):
Residue numbers refer to the chain shown, from its start. These are yes or no findings as the source states them, for the method shown. Some results given as binding are weak or reduced against the parent protein; the word gives no strength.

Sequences of proteins named here, by UniProt entry; tags and fusion partners are left off. Residues count along the entry.
UniProt P01138, residues 122-241: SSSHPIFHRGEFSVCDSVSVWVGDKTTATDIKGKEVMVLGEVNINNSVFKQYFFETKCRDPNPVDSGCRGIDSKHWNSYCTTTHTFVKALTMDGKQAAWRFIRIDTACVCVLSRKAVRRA

B1: L129 (Fab, V domains shown)
VH: QVQLQESGPGLVKPSETLSLTCTVSGFSLIGYDINWIRQPPGKGLEWIGMIWGDGTTDYNSALKSRVTISKDTSKNQFSLKLSSVTAADTAVYYCARGGYYYGTSYYFDYWGQGTLVTVS
VL: DIQMTQSPSSLSASVGDRVTITCRASQSISNNLNWYQQKPGKAPKLLIYYTSRFHSGVPSRFSGSGSGTDFTFTISSLQPEDIATYYCQQSKTLPYTFGQGTKLEIKR
B2: L208 (Fab, V domains shown)
VH: B1 VH
VL: B1 VL with S28Y, N32H
B3: L97 (Fab, V domains shown)
VH: B1 VH
VL: B1 VL with N32Q, T51V
B4: L81 (Fab, V domains shown)
VH: B1 VH
VL: B1 VL with S26F, S28A, N32Q, T51I, S56T

Target: human NGF (human, UniProt P01138 122-241)
Test: SPR (BIAcore) affinity screening of L1/L2 library clones on human NGF

binding, binds:
B1
B2
B3
B4
